Values of other authors in patent US20090281156A1, “ENHANCING PHOTOSTABILIZATION OF OXYMETAZOLINE” (Schering-Plough Healthcare Products, Inc,, priority 2007, published 2009).
Some entries share one result that the patent states for a list of compounds.

Settings: in vivo; cited from earlier work

COc1ccc(CCN2CCC(Nc3nc4ccccc4n3Cc3ccc(F)cc3)CC2)cc1 [Astemizole]
duration of action: greater than 24 hours
